# The other results are listed elsewhere or left out.
# B1: Actd5 (Actinidia), P84527 (protein)
# chain: ISSCNGPCRDLNDCDGQLICIKGKCNDDPQVGTHICRGTTHSHQPGGCKPSGTLTCRGKSYPTYDCSPPVTSSTPAKLTNNDFSEGGDDGGPSECDESYHNNNERIVALSTGWYNGGSRCGKMIRITASNGKSVSAKVVDECDSRHGCDKEHAGQPPCRNNIVDGSNAVWSALGLDKNVGVVDITWSMA
# How the values were obtained:
# Assay in all cases: glycan array binding signal (z-score within array); higher = stronger binding
# Details in all cases: glycan notation: IUPAC condensed, linker removed
# [1] = target: Man(a1-2)Man(a1-3)[Man(a1-2)Man(a1-6)]Man
# Summary of the method: (§1)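 Columns mapping to the same glycan were averaged after glycan names were converted to IUPAC-condensed notation. The data come from 3228 arrays in the Consortium for Functional Glycomics database, limited to those with an available protein sequence. Binding is reported as a within-array Z-score averaged across arrays of one protein sequence and across linkers.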
# [2] = target: Man(a1-2)Man(a1-3)[Man(a1-2)Man(a1-6)]Man(a1-6)[Man(a1-2)Man(a1-2)Man(a1-3)]Man
# Summary of the method: as §1
# [3] = target: Man(a1-2)Man(a1-3)[Man(a1-2)Man(a1-6)]Man(a1-6)[Man(a1-2)Man(a1-2)Man(a1-3)]Man(b1-4)GlcNAc(b1-4)GlcNAc
# Summary of the method: as §1
# [4] = target: Man(a1-2)Man(a1-3)[Man(a1-6)]Man(a1-6)[Man(a1-2)Man(a1-3)]Man(b1-4)GlcNAc(b1-4)GlcNAc
# Summary of the method: as §1
# [5] = target: Man(a1-2)Man(a1-6)[Man(a1-3)]Man(a1-6)[Man(a1-2)Man(a1-2)Man(a1-3)]Man
# Summary of the method: as §1
# [6] = target: Man(a1-2)Man(a1-6)[Man(a1-3)]Man(a1-6)[Man(a1-2)Man(a1-2)Man(a1-3)]Man(b1-4)GlcNAc(b1-4)GlcNAc
# Summary of the method: as §1
# Man(a1-3)[Man(a1-6)]Man = target: Man(a1-3)[Man(a1-6)]Man
# Summary of the method: as §1
# [7] = target: Man(a1-3)[Man(a1-6)]Man(a1-6)[Man(a1-2)Man(a1-3)]Man(b1-4)GlcNAc(b1-4)GlcNAc
# Summary of the method: as §1
# [8] = target: Man(a1-3)[Man(a1-6)]Man(a1-6)[Man(a1-3)]Man
# Summary of the method: as §1
# [9] = target: Man(a1-3)[Man(a1-6)]Man(a1-6)[Man(a1-3)]Man(b1-4)GlcNAc(b1-4)GlcNAc
# Summary of the method: as §1
# [10] = target: Man(a1-3)[Man(a1-6)]Man(b1-4)GlcNAc(b1-4)GlcNAc
# Summary of the method: as §1
# [11] = target: Man(a1-3)[Man(a1-6)]Man(b1-4)GlcNAc(b1-4)[Fuc(a1-6)]GlcNAc
# Summary of the method: as §1
# Man(a1-6)Man = target: Man(a1-6)Man
# Summary of the method: as §1
# Man(b1-4)GlcNAc = target: Man(b1-4)GlcNAc
# Summary of the method: as §1
# MurNAc(b1-4)GlcNAc = target: MurNAc(b1-4)GlcNAc
# Summary of the method: as §1
# Neu5Ac(a2-3)Gal = target: Neu5Ac(a2-3)Gal
# Summary of the method: as §1
# [12] = target: Neu5Ac(a2-3)Gal(b1-3)GalNAc
# Summary of the method: as §1
# [13] = target: Neu5Ac(a2-3)Gal(b1-3)GalNAc(b1-3)Gal(a1-4)Gal(b1-4)Glc
# Summary of the method: as §1
# [14] = target: Neu5Ac(a2-3)Gal(b1-3)GalNAc(b1-4)Gal(b1-4)Glc
# Summary of the method: as §1
# [15] = target: Neu5Ac(a2-3)Gal(b1-3)GalNAc(b1-4)[Neu5Ac(a2-3)]Gal(b1-4)Glc
# Summary of the method: as §1
# [16] = target: Neu5Ac(a2-3)Gal(b1-3)GalNAc(b1-4)[Neu5Ac(a2-8)Neu5Ac(a2-3)]Gal(b1-4)Glc
# Summary of the method: as §1
# [17] = target: Neu5Ac(a2-3)Gal(b1-3)GalNAc6S
# Summary of the method: as §1
# [18] = target: Neu5Ac(a2-3)Gal(b1-3)GlcNAc
# Summary of the method: as §1
# [19] = target: Neu5Ac(a2-3)Gal(b1-3)GlcNAc(b1-2)Man
# Summary of the method: as §1
# [20] = target: Neu5Ac(a2-3)Gal(b1-3)GlcNAc(b1-2)Man(a1-3)[GlcNAc(b1-4)][Neu5Ac(a2-3)Gal(b1-3)GlcNAc(b1-2)Man(a1-6)]Man(b1-4)GlcNAc(b1-4)GlcNAc
# Summary of the method: as §1
# [21] = target: Neu5Ac(a2-3)Gal(b1-3)GlcNAc(b1-2)Man(a1-3)[Neu5Ac(a2-3)Gal(b1-3)GlcNAc(b1-2)Man(a1-6)]Man(b1-4)GlcNAc(b1-4)GlcNAc
# Summary of the method: as §1
# [22] = target: Neu5Ac(a2-3)Gal(b1-3)GlcNAc(b1-2)[Neu5Ac(a2-3)Gal(b1-3)GlcNAc(b1-4)]Man(a1-6)[Neu5Ac(a2-3)Gal(b1-3)GlcNAc(b1-2)Man(a1-3)]Man(b1-4)GlcNAc(b1-4)GlcNAc
# Summary of the method: as §1
# [23] = target: Neu5Ac(a2-3)Gal(b1-3)GlcNAc(b1-3)Gal(b1-3)GlcNAc
# Summary of the method: as §1
# [24] = target: Neu5Ac(a2-3)Gal(b1-3)GlcNAc(b1-3)Gal(b1-4)GlcNAc
# Summary of the method: as §1
# [25] = target: Neu5Ac(a2-3)Gal(b1-3)GlcNAc(b1-3)GalNAc
# Summary of the method: as §1
# [26] = target: Neu5Ac(a2-3)Gal(b1-3)GlcNAc(b1-6)GalNAc
# Summary of the method: as §1
# [27] = target: Neu5Ac(a2-3)Gal(b1-3)GlcNAc6S
# Summary of the method: as §1
# [28] = target: Neu5Ac(a2-3)Gal(b1-3)[Fuc(a1-4)]GlcNAc
# Summary of the method: as §1
# [29] = target: Neu5Ac(a2-3)Gal(b1-3)[Fuc(a1-4)]GlcNAc(b1-3)Gal(b1-3)[Fuc(a1-4)]GlcNAc
# Summary of the method: as §1
# [30] = target: Neu5Ac(a2-3)Gal(b1-3)[Fuc(a1-4)]GlcNAc(b1-3)Gal(b1-4)[Fuc(a1-3)]GlcNAc
# Summary of the method: as §1
# [31] = target: Neu5Ac(a2-3)Gal(b1-3)[GlcNAc(b1-6)]GalNAc
# Summary of the method: as §1
# [32] = target: Neu5Ac(a2-3)Gal(b1-3)[Neu5Ac(a2-6)]GalNAc
# Summary of the method: as §1
# [33] = target: Neu5Ac(a2-3)Gal(b1-3)[Neu5Ac(a2-6)]GlcNAc(b1-3)[Fuc(a1-3)[Gal(b1-4)]GlcNAc(b1-6)]Gal(b1-4)Glc
# Summary of the method: as §1
# [34] = target: Neu5Ac(a2-3)Gal(b1-3)]Neu5Ac(a2-3)Gal(b1-4)]GlcNAc
# Summary of the method: as §1
# Neu5Ac(a2-3)Gal(b1-4)Glc = target: Neu5Ac(a2-3)Gal(b1-4)Glc
# Summary of the method: as §1
# [35] = target: Neu5Ac(a2-3)Gal(b1-4)GlcNAc
# Summary of the method: as §1
# [36] = target: Neu5Ac(a2-3)Gal(b1-4)GlcNAc(b1-2)Man
# Summary of the method: as §1
# [37] = target: Neu5Ac(a2-3)Gal(b1-4)GlcNAc(b1-2)Man(a1-3)[GlcNAc(b1-4)][Neu5Ac(a2-3)Gal(b1-4)GlcNAc(b1-2)Man(a1-6)]Man(b1-4)GlcNAc(b1-4)GlcNAc
# Summary of the method: as §1
# [38] = target: Neu5Ac(a2-3)Gal(b1-4)GlcNAc(b1-2)Man(a1-3)[Neu5Ac(a2-3)Gal(b1-4)GlcNAc(b1-2)Man(a1-6)]Man(b1-4)GlcNAc(b1-4)GlcNAc
# Summary of the method: as §1
# [39] = target: Neu5Ac(a2-3)Gal(b1-4)GlcNAc(b1-2)Man(a1-3)[Neu5Ac(a2-3)Gal(b1-4)GlcNAc(b1-2)Man(a1-6)]Man(b1-4)GlcNAc(b1-4)[Fuc(a1-6)]GlcNAc
# Summary of the method: as §1
binder,measurement,setting,value
B1,glycan array binding signal (z-score),[1],1.31
same,glycan array binding signal (z-score),[2],0.654
same,glycan array binding signal (z-score),[3],4.17
same,glycan array binding signal (z-score),[4],-1.01
same,glycan array binding signal (z-score),[5],3.42
same,glycan array binding signal (z-score),[6],2.28
same,glycan array binding signal (z-score),Man(a1-3)[Man(a1-6)]Man,0.209
same,glycan array binding signal (z-score),[7],5.03
same,glycan array binding signal (z-score),[8],-0.14
same,glycan array binding signal (z-score),[9],-0.022
same,glycan array binding signal (z-score),[10],0.859
same,glycan array binding signal (z-score),[11],0.037
same,glycan array binding signal (z-score),Man(a1-6)Man,-0.378
same,glycan array binding signal (z-score),Man(b1-4)GlcNAc,0.159
same,glycan array binding signal (z-score),MurNAc(b1-4)GlcNAc,0.42
same,glycan array binding signal (z-score),Neu5Ac(a2-3)Gal,-0.196
same,glycan array binding signal (z-score),[12],-0.428
same,glycan array binding signal (z-score),[13],1.4
same,glycan array binding signal (z-score),[14],0.285
same,glycan array binding signal (z-score),[15],-0.006
same,glycan array binding signal (z-score),[16],-0.915
same,glycan array binding signal (z-score),[17],-0.716
same,glycan array binding signal (z-score),[18],-0.085
same,glycan array binding signal (z-score),[19],-0.447
same,glycan array binding signal (z-score),[20],-0.14
same,glycan array binding signal (z-score),[21],1.58
same,glycan array binding signal (z-score),[22],-0.196
same,glycan array binding signal (z-score),[23],-1.03
same,glycan array binding signal (z-score),[24],0.207
same,glycan array binding signal (z-score),[25],-0.064
same,glycan array binding signal (z-score),[26],0.539
same,glycan array binding signal (z-score),[27],1
same,glycan array binding signal (z-score),[28],-0.053
same,glycan array binding signal (z-score),[29],-0.697
same,glycan array binding signal (z-score),[30],-0.166
same,glycan array binding signal (z-score),[31],-0.32
same,glycan array binding signal (z-score),[32],-0.993
same,glycan array binding signal (z-score),[33],0.144
same,glycan array binding signal (z-score),[34],0.26
same,glycan array binding signal (z-score),Neu5Ac(a2-3)Gal(b1-4)Glc,0.612
same,glycan array binding signal (z-score),[35],-0.811
same,glycan array binding signal (z-score),[36],-0.448
same,glycan array binding signal (z-score),[37],0.172
same,glycan array binding signal (z-score),[38],-0.792
same,glycan array binding signal (z-score),[39],-0.173

# Some of the entries so far, as tab-separated lines.
binder	measurement	setting	value
B1	glycan array binding signal (z-score)	[10]	0.859
same	glycan array binding signal (z-score)	[11]	0.037
same	glycan array binding signal (z-score)	Man(a1-6)Man	-0.378
same	glycan array binding signal (z-score)	Man(b1-4)GlcNAc	0.159
same	glycan array binding signal (z-score)	MurNAc(b1-4)GlcNAc	0.42
same	glycan array binding signal (z-score)	Neu5Ac(a2-3)Gal	-0.196
same	glycan array binding signal (z-score)	[12]	-0.428
same	glycan array binding signal (z-score)	[13]	1.4

# Source: the supplement of paper PMC8728848
